Experiment: Isothermal titration calorimetry (ITC), binding to ganglioside GM1
Conditions: stoichiometry; for n1: first binding step, Table 1, pH 7.2 phosphate buffer, 35° C., GM1:DPC 1:5; for n2: second binding step, Table 1, pH 7.2, 35° C.
Protocol: Isothermal calorimetric titrations (ITC) were performed with a MicroCal VP-ITC microcalorimeter in pH 7.2 phosphate buffer solution. In individual titrations, 15 μL GM1:DPC 1:5 containing solution was injected from the computer-controlled […] microsyringe at intervals of 300 s into the ligand solution, dissolved in the same buffer as the GM1. All measurements were carried out at 35° C. The ligands concentration in the cell was 15 μM, and the concentration of GM1 in the syringe was 300 μM. Control experiments were performed by injecting GM1 into the cell containing buffer but no ligands Experiments were repeated twice. The experimental data were fitted to the one binding site or two independent sites model (adjustable parameters: ΔHb1, Kd1, n1 and ΔHb2, Kd2, n2) using a nonlinear least-squares procedure. Errors were calculated by jackknife resampling.
Binding of Trp-Tyr-Lys-Tyr-Trp (WYKYW) and analogues to various ganglioside derivatives was tested as described under “Isothermal Titration calorimetry” to explore the specificity of the interaction between WYKYW and GM1. Affinity data for binding between WYKYW and various ganglioside derivatives (FIG. 1), and for binding between various mutated sequences of WYKYW and GM1 (Table 1) were obtained by Isothermal Titration calorimetry as described in Example 1 (General methods).

Trp-Tyr-Lys-β^3-homo-Tyr-Trp [WYKbYW]
n1: 0.49
n2: 1.80

WYKAW [Ala point mutation of WYKYW]
n1: 1.0

Trp-β^3-homo-Tyr-Lys-Tyr-Trp [WbYKYW]
n1: 0.51
n2: 1.72

β^3-homo-Trp-Tyr-Lys-Tyr-Trp [bWYKYW]
n1: 0.52
n2: 1.85

NCCCC[C@H](NC(=O)[C@H](Cc1ccc(O)cc1)NC(=O)[C@@H](N)Cc1c[nH]c2ccccc12)C(=O)N[C@@H](Cc1ccc(O)cc1)C(=O)N[C@H](Cc1c[nH]c2ccccc12)C(N)=O [WYKYw]
n1: 1.24

NCCCC[C@H](NC(=O)[C@H](Cc1ccc(O)cc1)NC(=O)[C@@H](N)Cc1c[nH]c2ccccc12)C(=O)N[C@H](Cc1ccc(O)cc1)C(=O)N[C@@H](Cc1c[nH]c2ccccc12)C(N)=O [WYKyW]
n1: 0.93

NCCCC[C@@H](NC(=O)[C@H](Cc1ccc(O)cc1)NC(=O)[C@@H](N)Cc1c[nH]c2ccccc12)C(=O)N[C@@H](Cc1ccc(O)cc1)C(=O)N[C@@H](Cc1c[nH]c2ccccc12)C(N)=O [WYkYW]
n1: 1.86

NCCCC[C@H](NC(=O)[C@@H](Cc1ccc(O)cc1)NC(=O)[C@@H](N)Cc1c[nH]c2ccccc12)C(=O)N[C@@H](Cc1ccc(O)cc1)C(=O)N[C@@H](Cc1c[nH]c2ccccc12)C(N)=O [WyKYW]
n1: 2.05

WAKYW [Ala point mutation of WYKYW]
n1: 1.0

WYKYA [Ala point mutation of WYKYW]
n1: 1.0

WYAYW [Ala point mutation of WYKYW]
n1: 1.3

NCCCC[C@H](NC(=O)[C@H](Cc1ccc(O)cc1)NC(=O)[C@H](N)Cc1c[nH]c2ccccc12)C(=O)N[C@@H](Cc1ccc(O)cc1)C(=O)N[C@@H](Cc1c[nH]c2ccccc12)C(N)=O [wYKYW]
n1: 1.81

From patent US20220389057A1, “ENDOCYTOSIS ROUTING SEQUENCE PEPTIDE FOR CELL DELIVERY SYSTEMS” (SZEGEDI TUDOMÁNYEGYETEM, priority 2019, published 2022)
